PubChem BioAssay AID1053208 – Peter MacCallum Cancer Centre – 2014
This is one part, drawn at random, of about 17,000 reagents tested. 788 of all reagents (4.7%) count as active. 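Calls rest on z-score classes alone; an extra cut-off of viability at most 70% of control was not applied to them.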 The numbers tell different reagents against one gene apart. Not all columns of the deposit are shown. No sequences are given here.

- Purpose: 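Find knock-downs that sensitise mouse osteosarcoma cells to doxorubicin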 (primary screen)
- Cell system: mouse osteosarcoma cells, early-passage culture from an engineered mouse model of fibroblastic bone tumour
- Knock-down reagent: siRNA pool against mouse genes, 40 nM
- Timing: about 120 h (48 h before drug, then 72 h with drug)
- Conditions: doxorubicin 100 nM for 72 h, roughly 30-40% inhibitory dose
- Detection: 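Viability read as ATP luminescence after 72 h of 100 nM doxorubicin or none, duplicate wells averaged, scaled to non-targeting siRNA, then expressed as robust z-scores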
- Scale: viability z-score with doxorubicin: higher = more viable cells under doxorubicin; viability z-score without drug: higher = more viable cells with knock-down alone; z-score of drug to no-drug ratio: higher = less drug sensitisation by knock-down
- Hit rule: 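Called active if knock-down leaves viability unchanged without drug (z within -2 to 2) but lowers it with doxorubicin (z at or under -2)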

gene | reagent no. | combined z-score class | viability z-score with doxorubicin | viability z-score without drug | z-score of drug to no-drug ratio | outcome
Dync2i1 | 1 | no change with or without drug | 0.79 | 0.84 | 0.34 | inactive
Ahsp | 1 | no change with or without drug | 0.9 | 0.84 | 0.45 | inactive
B430209F14Rik | 1 | no change with or without drug | -1.12 | -0.51 | -0.79 | inactive
Eef1e1 | 1 | low cell count with doxorubicin only | -2.02 | -1.52 | -1.12 | active
Tcstv3 | 1 | low cell count with doxorubicin only | -3.15 | -0.84 | -2.81 | active
Wnt3 | 1 | no change with or without drug | 0.11 | -0.17 | 0.34 | inactive
KRT2-18 | 1 | low cell count with doxorubicin only | -2.14 | -0.51 | -1.8 | active
Mavs | 1 | no change with or without drug | 0.22 | 0 | 0.34 | inactive
Or1j13 | 1 | no change with or without drug | -1.12 | -1.18 | -0.34 | inactive
Gstm4 | 1 | no change with or without drug | -0.9 | -1.18 | 0 | inactive
Actr8 | 1 | no change with or without drug | 0.22 | 1.18 | -0.45 | inactive
Cnr2 | 1 | no change with or without drug | 0.67 | -0.51 | 1.24 | inactive
Btbd9 | 1 | no change with or without drug | 0.67 | 0.17 | 0.67 | inactive
Prss22 | 1 | no change with or without drug | -0.22 | -0.67 | 0.34 | inactive
Ctps1 | 1 | no change with or without drug | 1.01 | 0.17 | 1.01 | inactive
Fam228b | 1 | no change with or without drug | 0.9 | 0.84 | 0.45 | inactive
Tex2 | 1 | no change with or without drug | -0.22 | -0.17 | 0 | inactive
Wipf1 | 1 | low cell count with doxorubicin only | -2.14 | -0.51 | -1.8 | active
Mmp3 | 1 | no change with or without drug | -0.45 | 1.01 | -1.01 | inactive
Ccl21b | 1 | no change with or without drug | -0.79 | -0.67 | -0.22 | inactive
Alyreffm1 | 1 | high cell count without drug only | 0.34 | 3.2 | -1.46 | inactive
Or4g17 | 1 | no change with or without drug | -1.35 | 0.51 | -1.57 | inactive
Stoml1 | 1 | no change with or without drug | -0.11 | -0.17 | 0.11 | inactive
Chtop | 1 | no change with or without drug | 0 | -0.17 | 0.22 | inactive
Rnf152 | 1 | no change with or without drug | 0.67 | -0.51 | 1.24 | inactive
Tlr1 | 1 | no change with or without drug | 0.22 | 1.01 | -0.34 | inactive
Or2g7 | 1 | no change with or without drug | -1.57 | -0.51 | -1.24 | inactive
Sprr2b | 1 | no change with or without drug | 0.22 | 0 | 0.34 | inactive
Dym | 1 | no change with or without drug | -0.67 | 1.52 | -1.46 | inactive
Ube2r2 | 1 | no change with or without drug | -0.45 | 0.17 | -0.45 | inactive
Ap4b1 | 1 | no change with or without drug | -1.12 | 0 | -1.12 | inactive
Ap4b1 | 2 | no change with or without drug | 0.45 | 1.18 | -0.22 | inactive
Rhoc | 1 | no change with or without drug | -0.56 | 1.01 | -1.12 | inactive
Rbm19 | 1 | no change with or without drug | 0.22 | 0.17 | 0.22 | inactive
Fam187a | 1 | low cell count with doxorubicin only | -2.47 | 0.51 | -2.81 | active
Zfp84 | 1 | no change with or without drug | 0.22 | 1.69 | -0.79 | inactive
Tsfm | 1 | high cell count without drug only | 0 | 2.19 | -1.24 | inactive
Odf4 | 1 | no change with or without drug | 0.45 | -0.17 | 0.67 | inactive
Senp6 | 1 | low cell count with doxorubicin only | -2.47 | 0.17 | -2.59 | active
Cstf2t | 1 | no change with or without drug | -0.22 | 0.84 | -0.67 | inactive
Dnajc4 | 1 | no change with or without drug | 0.67 | 1.85 | -0.45 | inactive
Mrgprb5 | 1 | no change with or without drug | -0.79 | -1.35 | 0.22 | inactive
1700123K08Rik | 1 | low cell count with doxorubicin only | -2.02 | 0 | -2.02 | active
Rnf112 | 1 | no change with or without drug | -1.12 | -0.51 | -0.79 | inactive
Thra | 1 | no change with or without drug | -0.34 | 0.51 | -0.56 | inactive
Vars1 | 1 | no change with or without drug | -0.9 | -0.84 | -0.22 | inactive
Tpsab1 | 1 | no change with or without drug | 0.11 | 0.51 | -0.11 | inactive
Cnksr3 | 1 | no change with or without drug | -1.8 | -1.01 | -1.12 | inactive
Rhoa | 1 | no change with or without drug | 0.45 | 0.17 | 0.45 | inactive
Coq6 | 1 | no change with or without drug | 0.34 | 0.51 | 0.11 | inactive

Not a retest: an excerpt of the list.
gene | reagent no. | combined z-score class | viability z-score with doxorubicin | viability z-score without drug | z-score of drug to no-drug ratio | outcome
Cnr2 | 1 | no change with or without drug | 0.67 | -0.51 | 1.24 | inactive
Btbd9 | 1 | no change with or without drug | 0.67 | 0.17 | 0.67 | inactive
Prss22 | 1 | no change with or without drug | -0.22 | -0.67 | 0.34 | inactive
Ctps1 | 1 | no change with or without drug | 1.01 | 0.17 | 1.01 | inactive
